We go through five molecules from patent US20190161553A1.

Protein sequences, listed by entry. Tags and fused reporters are not part of them. Lines headed by an entry give the natural chain unless they say otherwise; changes in a name come on top.
UniProt Q02223: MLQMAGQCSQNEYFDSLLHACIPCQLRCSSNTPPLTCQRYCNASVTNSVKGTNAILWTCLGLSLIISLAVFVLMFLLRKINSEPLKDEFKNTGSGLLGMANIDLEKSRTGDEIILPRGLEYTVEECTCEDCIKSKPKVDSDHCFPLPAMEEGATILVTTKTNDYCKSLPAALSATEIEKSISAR

Test [1] concerns the target human BCMA (B-cell maturation antigen) on the cell surface (human) (UniProt Q02223). As to the kind of experiment: flow cytometry, BCMA-expressing HEK293 vs control cells. A general note: Flow cytometry measures light scatter and fluorescence of single cells or particles in a stream.
For test [2], the target named is human BCMA residues 1-54 (linear and conformational CLIPS peptide libraries) (human). As to the kind of experiment: CLIPS peptide-array ELISA. On the technique in general: An ELISA detects its analyte on a solid surface through an enzyme-linked reagent.
For test [3], the target named is human BCMA (B-cell maturation antigen) on the cell surface (human) (UniProt Q02223). As to the kind of experiment: membrane proteome array (Retrogenix), scFv-Fc on HEK293 cells expressing human extracellular proteins.
Test [4] concerns the target BCMA-Fc (soluble human BCMA fused at its C-terminus to an Fc region of IgG) (human) (UniProt Q02223). As to the kind of experiment: flow cytometry of CAR-transduced CD4+ and CD8+ T cells stained with recombinant BCMA-Fc.

No constants are given. Whether binding was seen depends on the method and setting. Some binding calls cover weakened binding; strength is not graded here. For some of these results: Tags and fused reporters may be left off the sequences shown.

B1: BCMA-9 scFv (scFv)
scFv: EVQLVQSGGGLVKPGGSLRLSCAASGFTFSDYYMSWIRQAPGKGLEWVSYISSSGSTIYYADSVKGRFTISRDNAKNSLYLQMNSLRAEDTAVYYCARVDGDYVDDYWGQGTLVTVSSGGGGSGGGGSGGGGSSYELTQPPSVSVAPGQTARVTCGANNIGSKSVHWYQQKPGQAPMLVVYDDDDRPSGIPERFSGSNSGNTATLTISGVEAGDEADYFCHVWDRSRDHYVFGTGTKLTVL
In the case of B1, the binding result in test [1] and in test [2] was “binds” in each case.

B2: BCMA-51 scFv (scFv)
scFv: EVQLVQSGGGLVQPGRSLRLSCTASGFTFGDYAMSWFRQAPGKGLEWVGFIRSKAYGGTTEYAASVKGRFTISRDDSKSIAYLQMNSLKTEDTAVYYCAAWSAPTDYWGQGTLVTVSSGGGGSGGGGSGGGGSAIQLTQSPSTLSASVGDRVAITCRASQNIGDWLAWYQQKPGKAPKLLIFGASILESGVPSRFSGSGSGTDFTLTISSLQPEDVAVYYCQKYDGAPPWTFGQGTKVEIK
Regarding B2, the binding result in test [1] is “binds”.

B3: BCMA-55 scFv-Fc fusion protein (Fc fusion, not shown: a dimerising Fc or GST)
chain: QSALTQPASVSASPGQSIAISCTGTSSDVGWYQQHPGKAPKLMIYEDSKRPSGVSNRFSGSKSGNTASLTISGLQAEDEADYYCSSNTRSSTLVFGGGTKLTVLGSRGGGGSGGGGSGGGGSLEMAEVQLVQSGAEMKKPGASLKLSCKASGYTFIDYYVYWMRQAPGQGLESMGWINPNSGGTNYAQKFQGRVTMTRDTSISTAYMELSRLRSDDTAMYYCARSQRDGYMDYWGQGTLVTVSS
In the case of B3, the binding result in test [3] and in test [2] was “binds” each time.

B4: BCMA-55-LS CAR (anti-BCMA chimeric antigen receptor with BCMA-55 scFv, long spacer, CD28 transmembrane domain, 4-1BB and CD3-zeta endodomains) (protein)
chain: QSALTQPASVSASPGQSIAISCTGTSSDVGWYQQHPGKAPKLMIYEDSKRPSGVSNRFSGSKSGNTASLTISGLQAEDEADYYCSSNTRSSTLVFGGGTKLTVLGSRGGGGSGGGGSGGGGSLEMAEVQLVQSGAEMKKPGASLKLSCKASGYTFIDYYVYWMRQAPGQGLESMGWINPNSGGTNYAQKFQGRVTMTRDTSISTAYMELSRLRSDDTAMYYCARSQRDGYMDYWGQGTLVTVSSESKYGPPCPPCPAPPVAGPSVFLFPPKPKDTLMISRTPEVTCVVVDVSQEDPEVQFNWYVDGVEVHNAKTKPREEQFQSTYRVVSVLTVLHQDWLNGKEYKCKVSNKGLPSSIEKTISKAKGQPREPQVYTLPPSQEEMTKNQVSLTCLVKGFYPSDIAVEWESNGQPENNYKTTPPVLDSDGSFFLYSRLTVDKSRWQEGNVFSCSVMHEALHNHYTQKSLSLSLGKMFWVLVVVGGVLACYSLLVTVAFIIFWVKRGRKKLLYIFKQPFMRPVQTTQEEDGCSCRFPEEEEGGCELRVKFSRSADAPAYQQGQNQLYNELNLGRREEYDVLDKRRGRDPEMGGKPRRKNPQEGLYNELQKDKMAEAYSEIGMKGERRRGKGHDGLYQGLSTATKDTYDALHMQALPPR
Take B4: the binding result in test [4] is “binds”.

B5: BCMA-26 scFv (scFv)
scFv: EVQLVESGGGLVKPGGSLRLSCAASGFTFSDYYMSWIRQAPGKGLEWVSYISSSGSTIYYADSVKGRFTISRDNAKNSLYLQMNSLRAEDTAVYYCAKVDGPPSFDIWGQGTMVTVSSGGGGSGGGGSGGGGSSYVLTQPPSVSVAPGQTARITCGANNIGSKSVHWYQQKPGQAPMLVVYDDDDRPSGIPERFSGSNSGNTATLTISGVEAGDEADYFCHLWDRSRDHYVFGTGTKLTVL
Regarding B5, the binding entry in test [2] was “binds”.
